Experimental data as given in paper PMC12661054, “The CIP2A-TOPBP1 axis facilitates mitotic DNA repair via MiDAS and MMEJ” (Nature Communications, 2025).
These are yes or no findings as the source states them, for the method shown. Binding seen in cells or lysates may run through a third protein. Some binding calls cover weakened binding; strength is not graded here. Values belong to the binder of their own block, whether it stands above or below them.

The chains behind the UniProt entries cited, without tags or fusion partners. Where a name states a change or a piece, a line headed by the entry shows the natural chain unless it says otherwise.
UniProt Q8IY92: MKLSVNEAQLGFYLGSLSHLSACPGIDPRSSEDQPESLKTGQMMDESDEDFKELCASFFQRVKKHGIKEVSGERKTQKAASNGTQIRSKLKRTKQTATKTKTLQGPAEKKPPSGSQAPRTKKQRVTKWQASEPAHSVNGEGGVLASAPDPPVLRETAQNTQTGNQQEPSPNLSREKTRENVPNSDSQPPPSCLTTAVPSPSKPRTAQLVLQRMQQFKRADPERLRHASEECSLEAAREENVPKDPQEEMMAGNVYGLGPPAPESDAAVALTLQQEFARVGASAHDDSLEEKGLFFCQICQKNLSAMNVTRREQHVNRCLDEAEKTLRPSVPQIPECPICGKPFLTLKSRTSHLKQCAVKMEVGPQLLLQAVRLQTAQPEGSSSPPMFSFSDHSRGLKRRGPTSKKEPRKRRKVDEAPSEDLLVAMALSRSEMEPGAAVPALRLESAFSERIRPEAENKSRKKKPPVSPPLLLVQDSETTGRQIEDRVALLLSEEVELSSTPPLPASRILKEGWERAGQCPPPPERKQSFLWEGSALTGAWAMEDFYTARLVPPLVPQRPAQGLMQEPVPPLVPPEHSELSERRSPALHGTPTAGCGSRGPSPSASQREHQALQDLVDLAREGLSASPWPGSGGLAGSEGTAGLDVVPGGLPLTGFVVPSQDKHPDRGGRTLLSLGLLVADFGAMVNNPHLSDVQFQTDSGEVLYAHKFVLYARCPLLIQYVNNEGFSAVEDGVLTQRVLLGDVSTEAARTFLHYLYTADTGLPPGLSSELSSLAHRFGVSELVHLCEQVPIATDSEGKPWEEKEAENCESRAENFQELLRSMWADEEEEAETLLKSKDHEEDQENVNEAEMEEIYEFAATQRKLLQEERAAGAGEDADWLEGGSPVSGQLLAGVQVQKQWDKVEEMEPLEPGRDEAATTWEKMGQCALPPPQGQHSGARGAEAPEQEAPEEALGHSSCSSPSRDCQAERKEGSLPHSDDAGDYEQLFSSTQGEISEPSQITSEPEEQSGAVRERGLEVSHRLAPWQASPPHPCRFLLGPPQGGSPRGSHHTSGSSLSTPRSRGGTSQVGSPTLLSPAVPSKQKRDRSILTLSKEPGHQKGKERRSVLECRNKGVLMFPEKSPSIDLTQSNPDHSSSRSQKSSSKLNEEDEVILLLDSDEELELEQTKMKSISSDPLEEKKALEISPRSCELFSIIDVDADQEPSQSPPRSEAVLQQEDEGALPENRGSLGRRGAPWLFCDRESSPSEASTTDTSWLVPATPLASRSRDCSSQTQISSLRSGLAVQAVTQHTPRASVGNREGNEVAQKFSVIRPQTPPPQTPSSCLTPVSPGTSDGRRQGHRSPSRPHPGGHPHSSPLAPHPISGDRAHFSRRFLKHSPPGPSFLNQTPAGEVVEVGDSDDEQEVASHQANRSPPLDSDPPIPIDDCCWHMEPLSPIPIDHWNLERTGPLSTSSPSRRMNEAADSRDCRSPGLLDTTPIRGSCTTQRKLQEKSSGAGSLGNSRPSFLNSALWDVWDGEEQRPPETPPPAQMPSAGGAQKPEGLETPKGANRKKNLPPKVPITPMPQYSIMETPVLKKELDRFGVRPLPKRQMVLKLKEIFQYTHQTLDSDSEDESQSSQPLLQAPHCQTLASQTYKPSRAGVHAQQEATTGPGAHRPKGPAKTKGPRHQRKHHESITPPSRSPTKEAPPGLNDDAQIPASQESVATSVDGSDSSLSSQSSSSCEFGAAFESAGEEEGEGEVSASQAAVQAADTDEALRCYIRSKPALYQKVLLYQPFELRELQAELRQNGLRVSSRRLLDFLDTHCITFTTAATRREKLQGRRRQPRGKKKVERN
UniProt Q92547: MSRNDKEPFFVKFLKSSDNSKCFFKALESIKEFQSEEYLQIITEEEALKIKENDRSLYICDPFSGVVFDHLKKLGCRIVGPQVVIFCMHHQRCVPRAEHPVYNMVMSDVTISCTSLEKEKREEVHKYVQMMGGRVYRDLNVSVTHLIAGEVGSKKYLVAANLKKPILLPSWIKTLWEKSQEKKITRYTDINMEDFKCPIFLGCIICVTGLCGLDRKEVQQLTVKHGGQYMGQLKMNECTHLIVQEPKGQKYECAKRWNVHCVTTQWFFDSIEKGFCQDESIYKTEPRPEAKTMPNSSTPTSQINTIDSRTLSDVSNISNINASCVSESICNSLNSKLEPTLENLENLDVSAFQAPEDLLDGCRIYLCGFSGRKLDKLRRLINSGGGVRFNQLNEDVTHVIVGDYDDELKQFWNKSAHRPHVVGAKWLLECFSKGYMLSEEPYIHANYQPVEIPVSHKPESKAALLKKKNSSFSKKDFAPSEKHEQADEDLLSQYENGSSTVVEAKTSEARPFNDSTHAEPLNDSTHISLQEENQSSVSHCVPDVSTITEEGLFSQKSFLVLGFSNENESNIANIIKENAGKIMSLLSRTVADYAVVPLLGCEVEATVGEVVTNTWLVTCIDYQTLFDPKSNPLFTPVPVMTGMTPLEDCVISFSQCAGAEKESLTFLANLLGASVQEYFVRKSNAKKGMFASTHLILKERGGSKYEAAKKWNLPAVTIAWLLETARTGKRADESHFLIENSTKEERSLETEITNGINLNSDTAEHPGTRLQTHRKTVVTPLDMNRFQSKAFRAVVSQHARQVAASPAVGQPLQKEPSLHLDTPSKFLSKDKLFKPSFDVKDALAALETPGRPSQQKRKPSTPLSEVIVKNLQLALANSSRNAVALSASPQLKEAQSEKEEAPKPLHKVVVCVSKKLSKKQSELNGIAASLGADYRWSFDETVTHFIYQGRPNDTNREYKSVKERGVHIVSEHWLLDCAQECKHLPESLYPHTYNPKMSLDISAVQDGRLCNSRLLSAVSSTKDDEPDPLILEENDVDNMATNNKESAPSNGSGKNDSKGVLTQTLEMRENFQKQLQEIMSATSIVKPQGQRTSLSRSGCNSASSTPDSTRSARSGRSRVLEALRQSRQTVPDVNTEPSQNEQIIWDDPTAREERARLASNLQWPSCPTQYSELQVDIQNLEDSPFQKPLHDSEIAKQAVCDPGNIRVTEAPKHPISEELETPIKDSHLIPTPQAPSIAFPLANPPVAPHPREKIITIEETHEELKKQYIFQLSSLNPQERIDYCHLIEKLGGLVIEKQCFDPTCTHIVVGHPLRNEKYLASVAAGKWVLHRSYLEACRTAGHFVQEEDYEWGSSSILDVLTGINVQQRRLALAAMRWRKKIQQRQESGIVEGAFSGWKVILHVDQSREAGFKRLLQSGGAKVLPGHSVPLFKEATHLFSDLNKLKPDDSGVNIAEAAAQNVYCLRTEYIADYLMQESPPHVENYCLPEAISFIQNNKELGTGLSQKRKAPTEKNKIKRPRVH

Experiments:
eGFP-SLX4 WT (human) [1] = target: eGFP-SLX4 WT (human) (UniProt Q8IY92); experiment: co-IP; GFP-Trap agarose from benzonase-treated whole-cell lysates of transfected HEK293TN cells (nocodazole 100 ng/ml 18 h; in some panels asynchronous cells or 7 µM RO-3306 for 30 min); 200 mM NaCl, 0.2% Igepal, pH 7.5, 4 °C; western blot
eGFP-TOPBP1 WT (human) [2] = target: eGFP-TOPBP1 WT (human) (UniProt Q92547); experiment: as above
[3] = target: eGFP-TOPBP1 1 + 2 (K155E + K250E) (human) (UniProt Q92547); experiment: co-IP; GFP-Trap co-IP from the chromatin fraction of transfected HEK293TN cells treated with 100 ng/ml nocodazole for 18 h; western blot
eGFP-TOPBP1 WT (human) [4] = target: eGFP-TOPBP1 WT (human) (UniProt Q92547); experiment: as above
eGFP-SLX4 WT (human) [5] = target: eGFP-SLX4 WT (human) (UniProt Q8IY92); experiment: as above
eGFP-SLX4 T1260A (human) = eGFP-SLX4 T1260A (human) (UniProt Q8IY92); experiment: as above

binding (eGFP-SLX4 WT (human) [1]): binds
binding (eGFP-TOPBP1 WT (human) [2]): binds
binding [3]: binds
binding (eGFP-TOPBP1 WT (human) [4]): binds
B1: ERCC1 (endogenous) (protein, UniProt P07992 1-297)
chain: MDPGKDKEGVPQPSGPPARKKFVIPLDEDEVPPGVAKPLFRSTQSLPTVDTSAQAAPQTYAEYAISQPLEGAGATCPTGSEPLAGETPNQALKPGAKSNSIIVSPRQRGNPVLKFVRNVPWEFGDVIPDYVLGQSTCALFLSLRYHNLHPDYIHGRLQSLGKNFALRVLLVQVDVKDPQQALKELAKMCILADCTLILAWSPEEAGRYLETYKAYEQKPADLLMEKLEQDFVSRVTECLTTVKSVNKTDSQTLLTTFGSLEQLIAASREDLALCPGLGPQKARRLFDVLHEPFLKVP

binding (eGFP-TOPBP1 WT (human) [2]): binds
B2: TOP3A (endogenous) (protein, UniProt Q13472 1-1001)
chain: MIFPVARYALRWLRRPEDRAFSRAAMEMALRGVRKVLCVAEKNDAAKGIADLLSNGRMRRREGLSKFNKIYEFDYHLYGQNVTMVMTSVSGHLLAHDFQMQFRKWQSCNPLVLFEAEIEKYCPENFVDIKKTLERETRQCQALVIWTDCDREGENIGFEIIHVCKAVKPNLQVLRARFSEITPHAVRTACENLTEPDQRVSDAVDVRQELDLRIGAAFTRFQTLRLQRIFPEVLAEQLISYGSCQFPTLGFVVERFKAIQAFVPEIFHRIKVTHDHKDGIVEFNWKRHRLFNHTACLVLYQLCVEDPMATVVEVRSKPKSKWRPQALDTVELEKLASRKLRINAKETMRIAEKLYTQGYISYPRTETNIFPRDLNLTVLVEQQTPDPRWGAFAQSILERGGPTPRNGNKSDQAHPPIHPTKYTNNLQGDEQRLYEFIVRHFLACCSQDAQGQETTVEIDIAQERFVAHGLMILARNYLDVYPYDHWSDKILPVYEQGSHFQPSTVEMVDGETSPPKLLTEADLIALMEKHGIGTDATHAEHIETIKARMYVGLTPDKRFLPGHLGMGLVEGYDSMGYEMSKPDLRAELEADLKLICDGKKDKFVVLRQQVQKYKQVFIEAVAKAKKLDEALAQYFGNGTELAQQEDIYPAMPEPIRKCPQCNKDMVLKTKKNGGFYLSCMGFPECRSAVWLPDSVLEASRDSSVCPVCQPHPVYRLKLKFKRGSLPPTMPLEFVCCIGGCDDTLREILDLRFSGGPPRASQPSGRLQANQSLNRMDNSQHPQPADSRQTGSSKALAQTLPPPTAAGESNSVTCNCGQEAVLLTVRKEGPNRGRQFFKCNGGSCNFFLWADSPNPGAGGPPALAYRPLGASLGCPPGPGIHLGGFGNPGDGSGSGTSCLCSQPSVTRTVQKDGPNKGRQFHTCAKPREQQCGFFQWVDENTAPGTSGAPSWTGDRGRTLESEARSKRPRASSSDMGSTAKKPRKCSLCHQPGHTRPFCPQNR

binding (eGFP-SLX4 WT (human) [1]): binds
binding (eGFP-TOPBP1 WT (human) [2]): binds
binding [3]: binds
binding (eGFP-SLX4 WT (human) [5]): binds
binding (eGFP-SLX4 T1260A (human)): binds
binding (eGFP-TOPBP1 WT (human) [4]): binds
B3: MUS81 (endogenous) (protein, UniProt Q96NY9 1-551)
chain: MAAPVRLGRKRPLPACPNPLFVRWLTEWRDEATRSRRRTRFVFQKALRSLRRYPLPLRSGKEAKILQHFGDGLCRMLDERLQRHRTSGGDHAPDSPSGENSPAPQGRLAEVQDSSMPVPAQPKAGGSGSYWPARHSGARVILLVLYREHLNPNGHHFLTKEELLQRCAQKSPRVAPGSARPWPALRSLLHRNLVLRTHQPARYSLTPEGLELAQKLAESEGLSLLNVGIGPKEPPGEETAVPGAASAELASEAGVQQQPLELRPGEYRVLLCVDIGETRGGGHRPELLRELQRLHVTHTVRKLHVGDFVWVAQETNPRDPANPGELVLDHIVERKRLDDLCSSIIDGRFREQKFRLKRCGLERRVYLVEEHGSVHNLSLPESTLLQAVTNTQVIDGFFVKRTADIKESAAYLALLTRGLQRLYQGHTLRSRPWGTPGNPESGAMTSPNPLCSLLTFSDFNAGAIKNKAQSVREVFARQLMQVRGVSGEKAAALVDRYSTPASLLAAYDACATPKEQETLLSTIKCGRLQRNLGPALSRTLSQLYCSYGPLT
